In all, about 1,600 compounds went through this assay and about 420 (26%) were called active. The shares of active, inactive and inconclusive entries below differ from those in the screen. Calls come from the whole dose curve; as a rule, active = well fitted inhibition curve with a large enough effect; inconclusive = small, poorly fitted or top-dose-only effect; inactive = flat fitted curve, though single readings scatter. A potency beside an inconclusive call is a rough fit, not a confirmed value.
Assay: qHTS for Inhibitors of TGF-b: Cytotox Counterscreen for Cherry Picks; note: nearly all actives have a fitted effect of over 70% in size
Details: HepG2 CAGA-GFP viability, ATP luminescence, 18 h, cells stimulated with TGF-beta, 500 pg/mL; activity, negative = cytotoxicity: at 46.1 µM (top of the series)
Method in brief: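 HepG2 cells carrying a CAGA-GFP reporter, seeded at 1000 per well in DMEM/1% FBS; compounds plus TGF-beta (500 pg/mL) for 18 h; viability by CellTiter-Glo.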
Potency is the fitted concentration of half-maximal effect.

SMILES | Potency | activity, negative = cytotoxicity
CCN(CC)S(=O)(=O)c1cccc(C(=O)N[C@H](C(=O)Nc2nc3ccc(F)cc3s2)C(C)C)c1 | inconclusive: 14.6 µM [inhibitor, partial curve] | –
CC(C)(C)CN1CCN(Cc2nc(-c3ccc(F)cc3)cs2)CC1CCO (stereo not given) | inconclusive: 11.6 µM [inhibitor, partial curve, poor fit] | –
CC(C)CCNC(=O)C(c1ccco1)N(Cc1cccs1)C(=O)Cn1nnc2ccccc21 (stereo not given) | inactive | –
c1ccc(-c2nc3nonc3nc2-c2ccccc2)cc1 | inconclusive: 20.6 µM [inhibitor, single point] | –
Cc1ccc(S(=O)(=O)Nc2cccc3cccnc23)cc1 | inactive | –
O=C(CSc1nnc(CCc2ccccc2)n1-c1ccc(Cl)cc1)NCc1ccccc1 | inactive | –
Cn1cnc([N+](=O)[O-])c1Sc1nc(N)nc2c1ncn2C1CC(O)C(CO)O1 (stereo not given) | inconclusive: 1.64 µM [inhibitor, full curve] | –
Cc1ccc(NC(=O)c2ccccc2NS(=O)(=O)c2ccc(Cl)s2)cc1S(=O)(=O)N1CCOCC1 | inconclusive: 6.51 µM [inhibitor, partial curve] | –
CN(C)C(=O)c1ccc(-c2cc3onc(-c4ccccc4)c3c(=O)n2C)cc1 | inactive | –
COc1cccc(-c2cnc3c(NC=O)cc(-c4ccc(OC)cc4OC)cn23)c1 | inactive | –
O=C1c2cccc(OCc3ccc(F)cc3)c2CCN1Cc1ccc(F)cc1 | inconclusive: 11.6 µM [inhibitor, partial curve] | –
CCC(C)N1C(=O)S/C(=C/c2ccc(Sc3nc4ccccc4[nH]3)o2)C1=O (stereo not given) | inconclusive: 10.3 µM [inhibitor, partial curve] | –
CC(=O)Nc1cc(OC(C)=O)c2nonc2c1OC(C)=O | active: 7.31 µM | –
COc1ccc2[nH]c3c(c2c1)CCN1C(=O)C(CC(=O)NCCC2=CCCCC2)C[C@H](C(=O)N2CCCCC2)[C@@]31C (stereo not given in full) | inactive | –
Cn1c(=O)oc2cc(S(=O)(=O)N3CCCC(C(=O)NC4CCCc5ccccc54)C3)ccc21 (stereo not given) | inconclusive: 1.46 µM [inhibitor, full curve] | –
Cc1ccc(SCCNC(=O)c2ccc(C)c(S(=O)(=O)Nc3cccc(C)c3)c2)cc1 | inconclusive: 20.6 µM [inhibitor, partial curve] | –
O=[N+]([O-])c1ccc(NC(=S)NCCc2ccc(Cl)cc2)cc1 | active: 20.6 µM | –
O=C(/C(=C/c1ccc(Cl)cc1)c1nc2ccccc2[nH]1)c1cccs1 | active: 2.59 µM | –
ON=C1c2ccccc2-c2ccc(F)cc21 | inconclusive: 16.4 µM [inhibitor, single point] | –
CCCOc1ccc(F)cc1-c1cc(C(=O)Nc2ccc(C)c(NS(C)(=O)=O)c2)[nH]n1 | inconclusive: 29.1 µM [inhibitor, single point] | –
COc1ccccc1-c1cc(C(F)(F)F)nc(S(=O)(=O)CCCC(=O)N2CCCCC2C)n1 (stereo not given) | active: 18.4 µM | –
Cc1cccc(N(C)S(=O)(=O)c2ccc(-c3cnc(C4CC4)o3)cc2)c1 | inconclusive: 23.1 µM [inhibitor, single point] | –

SMILES | Potency | activity, negative = cytotoxicity
CN(C)c1nc(N/N=C/c2ccccc2O)nc(Nc2ccc(F)cc2)n1 | inconclusive: 7.31 µM [inhibitor, partial curve] | –
Clc1ccc2nc(-c3cccc(Br)c3)c(Cc3ccsc3)n2c1 | inconclusive: 16.4 µM [inhibitor, single point] | –
Cc1ccc2sc(N(CCCN(C)C)C(=O)CCS(=O)(=O)c3ccccc3)nc2c1C | inconclusive: 25.9 µM [inhibitor, single point] | –
CC(C)(C)c1ccc(OCCNC(=S)Nc2ccccc2)cc1 | inconclusive: 29.1 µM [inhibitor, single point] | –
O=C(Nc1ccc(N2CCOCC2)c(Cl)c1)c1ccc([N+](=O)[O-])o1 | active: 20.6 µM | –
CC(C)(C)c1ccc(Cn2nnc3c(=O)[nH]c(C4CCN(C(=O)c5ccco5)CC4)nc32)cc1 | inconclusive: 16.4 µM [inhibitor, single point] | –
COc1ccc(C(NC(C)=O)c2cc(Cl)c3cccnc3c2O)cc1 (stereo not given) | inconclusive: 0.517 µM [inhibitor, full curve] | –
O=C(c1ccco1)N1CCN(C(=O)C2CCCc3c2[nH]c2ccc(Cl)cc32)CC1 (stereo not given) | inconclusive: 7.31 µM [inhibitor, partial curve] | –
COc1cc(/C=C2\COC/C(=C\c3cc(OC)c(OC)c(OC)c3)C2=O)cc(OC)c1OC | active: 1.3 µM | –
FC(F)Oc1ccc(-c2csc(=Nc3cccnc3)n2CC2CCCO2)cc1 (stereo not given) | inactive | –
CCOC(=O)c1[nH]c2c(c1C)C(=O)CC(c1ccco1)C2 (stereo not given) | inactive | –
CC(C)c1ccccc1OCC(=O)NC1CCCc2ccccc21 (stereo not given) | inconclusive: 29.1 µM [inhibitor, single point] | –
CCO[C@@H]1OC(C(=O)NCc2nc3ccccc3[nH]2)=C[C@H](C(C)(C)C)[C@H]1CCCO | inactive | –
O=C(Nc1ccc(Br)cc1)c1cccc(S(=O)(=O)Nc2cnc3ccccc3c2)c1 | inconclusive: 2.31 µM [inhibitor, full curve] | –
O=C(Nc1ccc(Br)cn1)c1ccc([N+](=O)[O-])o1 | inconclusive: 29.1 µM [inhibitor, single point] | –
CC(C)(O)C#Cc1ccc([C@@H]2C[C@H]3CN(c4ccccc4)C(=O)[C@]34CCCN24)s1 | inconclusive: 1.64 µM [inhibitor, full curve] | –
CCCCCCC[C@@H](C/C=C/CCC(=O)N(C)C/C(=C/Cl)C/C(=C\C(=O)N1CC(OC)=CC1=O)OC)OC | inconclusive: 29.1 µM [inhibitor, single point] | –
COc1ccc(CNC(=O)[C@@H]2CCCN2C(=O)[C@@H]2Cc3ccccc3CN2C(=O)OC(C)(C)C)cc1 | inactive | –
Cc1cc2nc(-c3ccc(F)cc3)c(CC(C)(C)C)n2c(C)c1Br | inconclusive: 25.9 µM [inhibitor, partial curve, poor fit] | –
O=C(Nc1ccc(S(=O)(=O)NC2=NCCCCC2)cc1)c1ccc([N+](=O)[O-])s1 | inconclusive: 20.6 µM [inhibitor, single point] | –
Cc1ccc(NC(=O)CSc2nn(-c3ccc(Cl)cc3)c(=S)s2)cc1S(=O)(=O)N(C)C | inconclusive: 11.6 µM [inhibitor, partial curve] | –
CCOC(=O)c1c(C)[nH]c(C(=O)OCC(=O)NCCc2ccc(OCC)c(OCC)c2)c1C | inconclusive: 5.17 µM [inhibitor, full curve, poor fit] | –

Another view of some results above.
SMILES,Potency,"activity, negative = cytotoxicity"
CCC(C)N1C(=O)S/C(=C/c2ccc(Sc3nc4ccccc4[nH]3)o2)C1=O (stereo not given),"inconclusive: 10.3 µM [inhibitor, partial curve]",–
CC(=O)Nc1cc(OC(C)=O)c2nonc2c1OC(C)=O,active: 7.31 µM,–
COc1ccc2[nH]c3c(c2c1)CCN1C(=O)C(CC(=O)NCCC2=CCCCC2)C[C@H](C(=O)N2CCCCC2)[C@@]31C (stereo not given in full),inactive,–
Cn1c(=O)oc2cc(S(=O)(=O)N3CCCC(C(=O)NC4CCCc5ccccc54)C3)ccc21 (stereo not given),"inconclusive: 1.46 µM [inhibitor, full curve]",–
Cc1ccc(SCCNC(=O)c2ccc(C)c(S(=O)(=O)Nc3cccc(C)c3)c2)cc1,"inconclusive: 20.6 µM [inhibitor, partial curve]",–
O=[N+]([O-])c1ccc(NC(=S)NCCc2ccc(Cl)cc2)cc1,active: 20.6 µM,–
O=C(/C(=C/c1ccc(Cl)cc1)c1nc2ccccc2[nH]1)c1cccs1,active: 2.59 µM,–
ON=C1c2ccccc2-c2ccc(F)cc21,"inconclusive: 16.4 µM [inhibitor, single point]",–
CCCOc1ccc(F)cc1-c1cc(C(=O)Nc2ccc(C)c(NS(C)(=O)=O)c2)[nH]n1,"inconclusive: 29.1 µM [inhibitor, single point]",–
COc1ccccc1-c1cc(C(F)(F)F)nc(S(=O)(=O)CCCC(=O)N2CCCCC2C)n1 (stereo not given),active: 18.4 µM,–
Cc1cccc(N(C)S(=O)(=O)c2ccc(-c3cnc(C4CC4)o3)cc2)c1,"inconclusive: 23.1 µM [inhibitor, single point]",–
CN(C)c1nc(N/N=C/c2ccccc2O)nc(Nc2ccc(F)cc2)n1,"inconclusive: 7.31 µM [inhibitor, partial curve]",–
Clc1ccc2nc(-c3cccc(Br)c3)c(Cc3ccsc3)n2c1,"inconclusive: 16.4 µM [inhibitor, single point]",–
Cc1ccc2sc(N(CCCN(C)C)C(=O)CCS(=O)(=O)c3ccccc3)nc2c1C,"inconclusive: 25.9 µM [inhibitor, single point]",–
CC(C)(C)c1ccc(OCCNC(=S)Nc2ccccc2)cc1,"inconclusive: 29.1 µM [inhibitor, single point]",–
O=C(Nc1ccc(N2CCOCC2)c(Cl)c1)c1ccc([N+](=O)[O-])o1,active: 20.6 µM,–

Following part:

SMILES | Potency | activity, negative = cytotoxicity
COc1ccc2c(c1)OC[C@H]1[C@H]2N2C(=O)CN(Cc3ccc(Cl)cc3)C(=O)[C@@]2(C)[C@H]1c1ccccc1 | inactive | –
OCCCn1c(CCCNc2nc(-c3cccc(Br)c3)cs2)nc2cc(Cl)c(N3CCCCC3)cc21 | inactive | –
O=C(NC(Nc1nc2ccc([N+](=O)[O-])cc2s1)(C(F)(F)F)C(F)(F)F)c1cccnc1 | active: 1.64 µM | –
COc1ccc(-c2ccc(C(=O)Nc3cccc(NS(C)(=O)=O)c3)c3occc23)c(C)c1 | inconclusive: 20.6 µM [inhibitor, single point] | –
Cc1cccc(-c2nc(Nc3ccc(O)cc3)c3ccccc3n2)c1 | inconclusive: 18.4 µM [inhibitor, single point] | –
Cc1ccc(NC(=O)c2cc3c(s2)CCCC3)cc1S(=O)(=O)Nc1ccccc1Cl | inconclusive: 2.91 µM [inhibitor, partial curve] | –
O=C(Nc1cccc(C(F)(F)F)c1)Nc1ccc(N2CCCC2)c(S(=O)(=O)Nc2ccccc2Cl)c1 | active: 9.2 µM | –
COc1ccccc1NC(=O)c1ccc([N+](=O)[O-])o1 | inconclusive: 23.1 µM [inhibitor, partial curve] | –
Cc1cc(Nc2ccccc2)nc(NCc2ccccc2)n1 | inconclusive: 20.6 µM [inhibitor, single point] | –
Cc1ccc(Cc2c(-c3ccc(Cl)cc3)nc3cc(C)c(Br)c(C)n23)cc1 | inactive | –
O=C1Nc2ccccc2N=C(c2ccc3c(c2)OCO3)C1N(C(=O)c1ccc2ccccc2c1)C1CC1 (stereo not given) | inconclusive: 29.1 µM [inhibitor, single point] | –
Cc1cc(Cl)ccc1N=c1ssnc1Cl | inconclusive: 20.6 µM [inhibitor, single point] | –
S=C(Nc1ccccn1)c1ccccn1 | inconclusive: 23.1 µM [inhibitor, single point] | –
C=CCn1c(O)c(N=NC(=S)Nc2ccc(OC)cc2)c2ccccc21 | – | inconclusive: -24.2% [inhibitor]
Cc1ccc(OC(C)C(=O)Nc2ccncc2)cc1C (stereo not given) | inconclusive: 25.9 µM [inhibitor, single point] | –
NC(Cc1ccc(C(F)(F)F)cc1)c1csc(NC(=O)Nc2ccccc2Cc2ccccc2)n1 (stereo not given) | inconclusive: 18.4 µM [inhibitor, single point] | –
CCOc1ccc(N(CC(=O)N/N=C/c2cc([N+](=O)[O-])ccc2Cl)S(C)(=O)=O)cc1 | inactive | –
CN(CCCC1CCCC1)C(=O)c1cc(COc2ccc(F)cc2F)on1 | inconclusive: 16.4 µM [inhibitor, partial curve] | –
Nc1nc(F)nc2c1ncn2[C@@H]1O[C@H](CO)[C@@H](O)[C@@H]1O | active: 0.461 µM | –
COC(=O)c1c(NC(NC(=O)C(C)(C)C)C(Cl)(Cl)Cl)sc2c1CCC2 (stereo not given) | inconclusive: 29.1 µM [inhibitor, single point] | –
COc1ccccc1CNS(=O)(=O)c1ccc2c(c1)CC(C)N2C(=O)C1CCC1 (stereo not given) | inactive | –

Reference: PubChem BioAssay AID720535 (National Center for Advancing Translational Sciences (NCATS), 2013)
